In patent publication US5227488A, “Aza spiro decane and use thereof in treating CNS disorders” (Novo Nordisk A/S, priority 1989, dated 1993):
The name of at least one read-out is uncertain.

Tested on: Adenylatcyclase
Experiment: Adenylatcyclase
Format: biochemical

CC1(C)CC(=O)N(CCCCN2CCN(c3ncccn3)CC2)C(=O)C1 [gepirone, reference compound]
Adenylatcyclase Eff: 80%
